# According to PubChem BioAssay AID1347076 (National Center for Advancing Translational Sciences (NCATS), 2019):
# Among all 400,000 compounds or so, about 13,000 (3.2%) were called active. The inconclusive results got no clear call from the source; some entries with a clear call stand among them for comparison. Calls follow the shape of the dose curve; as a rule, active = well fitted cell-killing curve with a large enough effect; inconclusive = small, poorly fitted or top-dose-only effect, or effect the other way; inactive = flat fitted curve, though single readings scatter. Where the call is inconclusive, the potency comes from a doubtful curve fit.
# Assay: qHTS assay for MDR1-selective chemotherapeutics: Primary screen using the drug-selected MDR subline cells KB-V1; also: nearly all actives have a fitted effect of over 60% in size
# Settings: KB-V1 MDR cells viability, CellTiter-Glo, 72 h; activity change, negative = cytotoxicity: at 46.1 µM (top of the series)
# Outline: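 Cytotoxicity toward P-gp-expressing KB-V1 cells was determined as loss of CellTiter-Glo luminescence after 72 h at 37 degrees C. Compounds were tested in quantitative HTS format across a concentration range, with curves fitted to normalized data.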
# % is scaled to controls: 0 for no effect and ±100 for the full control effect; potency is read from the fitted curve at half-maximal effect.
SMILES,"activity change, negative = cytotoxicity",Potency
O=C1Nc2cc(C(=O)N3CCN(Cc4ccccc4)CC3)ccc2SC1N1CCOCC1 (stereo not drawn),inactive: 0%,
COC(=O)CN(C#N)c1nc(NC(C)C)nc(NC(C)C)n1,inactive: 19.8%,
Cc1ccc(-n2nc(C)c(C(=O)NCCCN3CCN(c4ccc(F)cc4)CC3)c2-n2cccc2)cc1,,active: 16.4 µM
CCOC(=O)C1(CCCc2ccccc2)CCN(C(=O)C2CCCO2)CC1 (stereo not drawn),,"inconclusive: 20.6 µM [cytotoxic, single point]"
Nc1nc2ccc(Oc3ccccc3)cc2s1,,"inconclusive: 29.1 µM [cytotoxic, single point]"
Cc1ccc(S(=O)(=O)N(Cc2cc3cccc(C)c3[nH]c2=O)c2ccccc2)cc1,,"inconclusive: 7.31 µM [cytotoxic, partial curve, poor fit]"
COC(=O)c1c(C)[nH]c(C(=O)OCC(=O)c2c(N)n(CC(C)C)c(=O)n(C)c2=O)c1C,inactive: -10.8%,
O=C(CN(Cc1ccccc1Cl)C(=O)CN1C(=O)CSc2ccccc21)NC1CC1,,"inconclusive: 9.2 µM [cytotoxic, partial curve]"
CC(C)n1c(O)c(/C=C2\C=NN=C2c2ccccc2)sc1=S,,"inconclusive: 14.6 µM [cytotoxic, partial curve]"
Cc1nc2ccccc2c2oc(C(=O)NCc3ccccn3)cc12,,active: 2.59 µM
CCOc1ccc(-c2nonc2NC(=O)c2oc3c(C)c(C)ccc3c2C)cc1OCC,inactive: 4.91%,
COc1cc(C(=O)NCC(c2cccs2)N2CCOCC2)cc(Br)c1OCc1ccccc1 (stereo not drawn),,"inconclusive: 32.6 µM [cytotoxic, partial curve, poor fit]"
Cc1cc(Oc2ccc(C#N)cc2)nc(NCc2ccccc2)n1,,"inconclusive: 29.1 µM [cytotoxic, single point]"
C=CCN1C(=O)C(C)(C)N(C(=O)c2cccc([N+](=O)[O-])c2)c2ccccc21,,"inconclusive: 23.1 µM [cytotoxic, single point]"
CN(C)/C=C1/C=C(C=O)OC1=O,,"inconclusive: 29.1 µM [rising, single point]"
COc1ccc(NC(=O)N2c3ccccc3C(C)=CC2(C)C)cc1,inactive: 0%,
Fc1cccc(NC(=S)NNc2c3ccccc3nc3ccccc23)c1,,"inconclusive: 20.6 µM [cytotoxic, single point]"
CCOc1cc(C(=O)N2CC(=O)Nc3ccc(C)cc3C2c2ccccc2)cc(OCC)c1OCC (stereo not drawn),,"inconclusive: 23.1 µM [rising, single point]"
Cc1ccc(SCCN2CCC(C)CCC2=O)cc1 (stereo not drawn),,"inconclusive: 18.4 µM [cytotoxic, partial curve]"
O=S(=O)(NCc1ccccc1)c1ccc(S(=O)(=O)N(Cc2ccccn2)Cc2ccco2)cc1,,"inconclusive: 2.59 µM [cytotoxic, partial curve, poor fit]"
CCN1CCN(c2ccc(N=Cc3ccccc3O)cc2)CC1,inactive: -17.5%,
COc1cccc(C2CC(c3cccc(NS(C)(=O)=O)c3)=NN2C(=O)c2ccccc2)c1OC (stereo not drawn),,active: 13 µM
CC(C)C(OC(=O)CN1C(=O)COc2ccccc21)C(=O)NC1CCCCC1 (stereo not drawn),,"inconclusive: 7.31 µM [cytotoxic, partial curve]"
COc1cccc(Nc2nnc(SCC(=O)N3CC(C)OC(C)C3)s2)c1 (stereo not drawn),,"inconclusive: 16.4 µM [cytotoxic, partial curve]"

# 3 records picked at random from the list so far:
SMILES,"activity change, negative = cytotoxicity",Potency
CCOC(=O)C1(CCCc2ccccc2)CCN(C(=O)C2CCCO2)CC1 (stereo not drawn),,"inconclusive: 20.6 µM [cytotoxic, single point]"
Cc1nc2ccccc2c2oc(C(=O)NCc3ccccn3)cc12,,active: 2.59 µM
COc1cccc(Nc2nnc(SCC(=O)N3CC(C)OC(C)C3)s2)c1 (stereo not drawn),,"inconclusive: 16.4 µM [cytotoxic, partial curve]"

# Carrying on:

SMILES,"activity change, negative = cytotoxicity",Potency
O=C(NCc1ccccn1)Nc1ccc(Br)cc1,,"inconclusive: 16.4 µM [rising, single point]"
Cc1ccccc1CNC(=O)c1ccc(CSCc2ccccc2)cc1,inactive: -18.8%,
CC(=O)OC1COC(OC(C)=O)CO1 (stereo not drawn),inactive: -9.21%,
Cc1[nH]n(-c2ccccc2)c(=O)c1C=Nc1cccc2cccnc12,,active: 18.4 µM
Cc1ccc(N=Nc2cc(C)ccc2N)cc1,inactive: -22.6%,
CCN(CC)c1nc(SCCOC(=O)Nc2ccccc2)nc(N(CC)CC)n1,,active: 20.6 µM
COC(=O)c1ccc(NS(=O)(=O)c2ccc(-c3cc(C)no3)s2)cc1,,"inconclusive: 14.6 µM [rising, partial curve]"
COc1ccc(N2C(=O)C(Cl)=C(Nc3ccccc3OC)C2=O)cc1,inactive: 0.0969%,
O=C(NCCN1C(=O)S/C(=C\c2ccc(Cl)cc2)C1=O)c1ccc(F)c(S(=O)(=O)N2CCOCC2)c1,inactive: -5.38%,
CC(=O)N1c2ccc(S(=O)(=O)NCC3CCC(C(=O)Nc4ncccc4C)CC3)cc2CC1C (stereo not drawn),inactive: 19.7%,
CCOC(=O)c1c(C)[nH]c(C)c1C(=O)COC(=O)c1cccc(C)c1O,,active: 16.4 µM
COc1ccc(NC(=S)N2CCN(C/C=C/c3ccccc3)CC2)cc1OC,inactive: -23.9%,
Cc1cc(C)c(C#N)c(Sc2nc(C)c([N+](=O)[O-])c(C)c2C#N)n1,inactive: -16.1%,
N#Cc1sc(NCc2ccccc2)nc1Cl,,"inconclusive: 29.1 µM [cytotoxic, single point]"
Cc1ccc([C@@H]2CC=C(C(=O)O)CN2S(=O)(=O)c2ccc(C)cc2)cc1,,"inconclusive: 0.82 µM [rising, partial curve]"
Nc1ccc(OCc2ccco2)cc1,,"inconclusive: 13 µM [rising, partial curve, poor fit]"
COCCN(C(=O)COC(=O)c1ccccc1Oc1ccccc1)c1c(N)n(Cc2ccccc2)c(=O)[nH]c1=O,inactive: -3.37%,
COC(=O)c1cc(NC(=O)CN(c2cccc(OC)c2)S(=O)(=O)c2ccccc2)ccc1Cl,,active: 1.46 µM
COc1ccccc1CNS(=O)(=O)c1cc(C)ccc1OC,,"inconclusive: 20.6 µM [cytotoxic, single point]"
CC(C)CNC(=S)N1CCN(C(c2ccccc2)c2ccccc2)CC1,,"inconclusive: 20.6 µM [cytotoxic, single point]"
Cc1nc2oc3c(NCc4ccccn4)ncnc3c2c2c1COC(C)(C)C2,,active: 2.06 µM
COc1ccc(-c2[nH]ncc2/C=N/NC(=O)c2cc(Br)ccc2O)c(OC)c1,inconclusive: -0.787%,
c1ccc(Sc2nc(N3CCCCC3)nc(N3CCCCC3)n2)nc1,,"inconclusive: 20.6 µM [cytotoxic, single point]"
CCOc1ccc(-c2nn(CC(=O)NC3CCCCC3)c3c2cnc2ccc(C)cc23)cc1,inactive: 20.6%,
